Source: paper PMC7817833
No constants are given. Whether binding was seen depends on the method and setting. In cells and extracts the contact can be indirect. A yes stands for co-enrichment or nearness to the bait. Other partners may have been found.

Target: T1, Endonuclease G (ENDOG), overexpressed in L02 cells (human) (UniProt Q14249)
T1 sequence: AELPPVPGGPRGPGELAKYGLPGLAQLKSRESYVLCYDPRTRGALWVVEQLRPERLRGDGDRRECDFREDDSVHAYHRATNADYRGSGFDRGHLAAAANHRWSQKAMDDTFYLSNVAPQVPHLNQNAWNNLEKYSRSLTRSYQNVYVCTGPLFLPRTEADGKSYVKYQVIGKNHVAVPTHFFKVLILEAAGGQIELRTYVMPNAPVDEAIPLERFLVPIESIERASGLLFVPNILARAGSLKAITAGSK
Experiment: affinity purification with mass spectrometry; immunoprecipitation of proteins associated with ENDOG; bands excised, trypsin digested, HPLC-MS

B1: 14-3-3γ, endogenous (protein, UniProt P61981 1-247)
chain: MVDREQLVQKARLAEQAERYDDMAAAMKNVTELNEPLSNEERNLLSVAYKNVVGARRSSWRVISSIEQKTSADGNEKKIEMVRAYREKIEKELEAVCQDVLSLLDNYLIKNCSETQYESKVFYLKMKGDYYRYLAEVATGEKRATVVESSEKAYSEAHEISKEHMQPTHPIRLGLALNYSVFYYEIQNAPEQACHLAKTAFDDAIAELDTLNEDSYKDSTLIMQLLRDNLTLWTSDQQDDDGGEGNN
**Q.** B1 was tested. Which binding did it give?
**A.** binds
